Measurements published in paper PMC9816388.
No signal at the amounts used counts as a negative. For at least one entry, the source does not settle the construct or the ends of the probe.

Target: CpxR-P (phosphorylated His6-CpxR) (Actinobacillus pleuropneumoniae) (UniProt A0ABM6X2V6)
Experiment: EMSA
Settings: acetyl phosphate-phosphorylated CpxR, 2.5 mM Mg2+, 50 mM Tris-HCl pH 8.0, 2.5 mM MgCl2, 100 mM KCl, 0.2 mM DTT, 10% glycerol, 2 ug salmon sperm DNA, 24 C 20 min, probe 1 uM, CpxR-P 0-4 pmol, 4% native PAGE in 0.5x TBE, recombinant protein, protein details: His6 (pET30a), label: biotin, probe letters rebuilt from the primers and the genome

Sequence	binding result	binding result (complex lost with excess (100-fold) unlabeled probe)
CCGAATCCTTTCGCACTATTGAACCATTTCACGATGCCAACTTCCATAATTCTCTCCTATCTTACGGCATTGATATTACGCGGTGCATTGTAGTCAAAAAAGTGAACCTCACAATCGGAAATGTTTGAAAATTCGAACAAGATCACAAAATTTTTTAAAATACGGAGGTT (double strand) [cspD promoter region]	no binding	
TTGATGAAAAGAATTGCTGCACGTTTGTTTGGAGATTAGAGATTTATTCGCGAAGAACTCTCAGAAAATCAGAAGATTTATAGAAAGGAAAACATCGATAAAGCAATCGTACTCAAGAACGCTACGAGAAGCGTTTTCGATTAGAACATTAAAAAAACATTAAAGCAAATATTTTTTGAACTTATTTATCGGAATTGAAACATAGAAATATATGAACGTAACAAAATAGCGTAATGACTTGATTTTATATAGACGGGAATCCGTAAATAAAATATAGTAGCGGGCTAAGACTCTGTATTGGGTCGGCATCTATTTGGACTTAAAT (double strand) [cspC promoter region]		binds
